Reference: article PMC10070447
Results are given in words; binding and its absence hold for the method and conditions named. In cells and extracts the contact can be indirect. Some results given as binding are weak or reduced against the parent protein; the word gives no strength.

Target: T1, UCHL3, P15374
T1 chain: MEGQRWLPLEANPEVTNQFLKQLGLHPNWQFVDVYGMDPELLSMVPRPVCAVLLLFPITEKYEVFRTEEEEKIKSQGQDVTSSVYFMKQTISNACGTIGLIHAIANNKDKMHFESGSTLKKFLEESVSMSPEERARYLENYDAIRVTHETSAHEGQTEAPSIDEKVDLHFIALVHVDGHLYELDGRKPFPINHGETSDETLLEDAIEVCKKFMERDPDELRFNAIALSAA
Test: co-IP; HEK293 cells treated with farrerol; lysis in RIPA buffer, antibodies and Protein A/G-agarose beads at 4 °C, five washes with RIPA buffer, western blot
Conditions: remark: other sources report otherwise

binding: binds
B1: RAD51, Q06609 1-339 (protein)
chain: MAMQMQLEANADTSVEEESFGPQPISRLEQCGINANDVKKLEEAGFHTVEAVAYAPKKELINIKGISEAKADKILAEAAKLVPMGFTTATEFHQRRSEIIQITTGSKELDKLLQGGIETGSITEMFGEFRTGKTQICHTLAVTCQLPIDRGGGEGKAMYIDTEGTFRPERLLAVAERYGLSGSDVLDNVAYARAFNTDHQTQLLYQASAMMVESRYALLIVDSATALYRTDYSGRGELSARQMHLARFLRMLLRLADEFGVAVVITNQVVAQVDGAAMFAADPKKPIGGNIIAHASTTRLYLRKGRGETRICKIYDSPCLPEAEAMFAINADGVGDAKD
